Reference: the supplement of paper PMC12823440, “Inhibitors supercharge kinase turnover through native proteolytic circuits” (Nature, 2025)
Some of the results follow. Hit calls seldom repeat between salt and free forms of one compound.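 Kinases were expressed as nanoluciferase fusions in K562 cells and luminescence was read every 4 h between 2 and 18 h as percent of control, DMSO set to 100% and a positive control to 0%. A time point counts as decreased when the signal drops significantly (2 sigma). The hit call is the authors' own, does not follow from the count of time points alone, and its rule is not shown.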

The chains behind the UniProt entries cited, without tags or fusion partners. Where a name states a change or a piece, a line headed by the entry shows the natural chain unless it says otherwise.
UniProt O96013: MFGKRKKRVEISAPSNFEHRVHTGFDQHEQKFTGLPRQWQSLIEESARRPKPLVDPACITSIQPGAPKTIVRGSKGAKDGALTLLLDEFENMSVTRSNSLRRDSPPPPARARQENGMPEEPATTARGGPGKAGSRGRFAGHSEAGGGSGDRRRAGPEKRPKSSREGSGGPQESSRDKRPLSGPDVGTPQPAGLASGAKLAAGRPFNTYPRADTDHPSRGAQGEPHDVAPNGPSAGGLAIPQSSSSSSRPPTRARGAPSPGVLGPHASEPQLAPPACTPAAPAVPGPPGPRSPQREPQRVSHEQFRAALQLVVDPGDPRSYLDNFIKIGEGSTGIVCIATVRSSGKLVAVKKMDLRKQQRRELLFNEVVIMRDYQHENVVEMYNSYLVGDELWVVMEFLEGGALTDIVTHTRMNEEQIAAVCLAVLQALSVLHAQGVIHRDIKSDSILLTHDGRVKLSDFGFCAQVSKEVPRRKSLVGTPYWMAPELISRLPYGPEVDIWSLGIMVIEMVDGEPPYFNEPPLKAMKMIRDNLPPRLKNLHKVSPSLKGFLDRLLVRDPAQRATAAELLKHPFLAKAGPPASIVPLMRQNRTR
UniProt Q15118, whole entry, looked up: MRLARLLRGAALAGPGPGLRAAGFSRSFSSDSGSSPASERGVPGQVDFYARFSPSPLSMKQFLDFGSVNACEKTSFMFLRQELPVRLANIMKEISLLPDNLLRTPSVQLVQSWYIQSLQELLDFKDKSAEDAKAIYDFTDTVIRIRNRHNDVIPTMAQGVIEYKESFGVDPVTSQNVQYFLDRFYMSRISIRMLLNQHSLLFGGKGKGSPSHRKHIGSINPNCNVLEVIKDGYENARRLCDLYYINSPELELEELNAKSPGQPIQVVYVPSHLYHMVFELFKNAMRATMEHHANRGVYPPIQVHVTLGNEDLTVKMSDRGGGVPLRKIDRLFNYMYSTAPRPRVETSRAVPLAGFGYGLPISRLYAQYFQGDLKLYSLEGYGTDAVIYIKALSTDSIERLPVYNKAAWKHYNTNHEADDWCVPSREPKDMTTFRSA
UniProt P42356, whole entry, looked up: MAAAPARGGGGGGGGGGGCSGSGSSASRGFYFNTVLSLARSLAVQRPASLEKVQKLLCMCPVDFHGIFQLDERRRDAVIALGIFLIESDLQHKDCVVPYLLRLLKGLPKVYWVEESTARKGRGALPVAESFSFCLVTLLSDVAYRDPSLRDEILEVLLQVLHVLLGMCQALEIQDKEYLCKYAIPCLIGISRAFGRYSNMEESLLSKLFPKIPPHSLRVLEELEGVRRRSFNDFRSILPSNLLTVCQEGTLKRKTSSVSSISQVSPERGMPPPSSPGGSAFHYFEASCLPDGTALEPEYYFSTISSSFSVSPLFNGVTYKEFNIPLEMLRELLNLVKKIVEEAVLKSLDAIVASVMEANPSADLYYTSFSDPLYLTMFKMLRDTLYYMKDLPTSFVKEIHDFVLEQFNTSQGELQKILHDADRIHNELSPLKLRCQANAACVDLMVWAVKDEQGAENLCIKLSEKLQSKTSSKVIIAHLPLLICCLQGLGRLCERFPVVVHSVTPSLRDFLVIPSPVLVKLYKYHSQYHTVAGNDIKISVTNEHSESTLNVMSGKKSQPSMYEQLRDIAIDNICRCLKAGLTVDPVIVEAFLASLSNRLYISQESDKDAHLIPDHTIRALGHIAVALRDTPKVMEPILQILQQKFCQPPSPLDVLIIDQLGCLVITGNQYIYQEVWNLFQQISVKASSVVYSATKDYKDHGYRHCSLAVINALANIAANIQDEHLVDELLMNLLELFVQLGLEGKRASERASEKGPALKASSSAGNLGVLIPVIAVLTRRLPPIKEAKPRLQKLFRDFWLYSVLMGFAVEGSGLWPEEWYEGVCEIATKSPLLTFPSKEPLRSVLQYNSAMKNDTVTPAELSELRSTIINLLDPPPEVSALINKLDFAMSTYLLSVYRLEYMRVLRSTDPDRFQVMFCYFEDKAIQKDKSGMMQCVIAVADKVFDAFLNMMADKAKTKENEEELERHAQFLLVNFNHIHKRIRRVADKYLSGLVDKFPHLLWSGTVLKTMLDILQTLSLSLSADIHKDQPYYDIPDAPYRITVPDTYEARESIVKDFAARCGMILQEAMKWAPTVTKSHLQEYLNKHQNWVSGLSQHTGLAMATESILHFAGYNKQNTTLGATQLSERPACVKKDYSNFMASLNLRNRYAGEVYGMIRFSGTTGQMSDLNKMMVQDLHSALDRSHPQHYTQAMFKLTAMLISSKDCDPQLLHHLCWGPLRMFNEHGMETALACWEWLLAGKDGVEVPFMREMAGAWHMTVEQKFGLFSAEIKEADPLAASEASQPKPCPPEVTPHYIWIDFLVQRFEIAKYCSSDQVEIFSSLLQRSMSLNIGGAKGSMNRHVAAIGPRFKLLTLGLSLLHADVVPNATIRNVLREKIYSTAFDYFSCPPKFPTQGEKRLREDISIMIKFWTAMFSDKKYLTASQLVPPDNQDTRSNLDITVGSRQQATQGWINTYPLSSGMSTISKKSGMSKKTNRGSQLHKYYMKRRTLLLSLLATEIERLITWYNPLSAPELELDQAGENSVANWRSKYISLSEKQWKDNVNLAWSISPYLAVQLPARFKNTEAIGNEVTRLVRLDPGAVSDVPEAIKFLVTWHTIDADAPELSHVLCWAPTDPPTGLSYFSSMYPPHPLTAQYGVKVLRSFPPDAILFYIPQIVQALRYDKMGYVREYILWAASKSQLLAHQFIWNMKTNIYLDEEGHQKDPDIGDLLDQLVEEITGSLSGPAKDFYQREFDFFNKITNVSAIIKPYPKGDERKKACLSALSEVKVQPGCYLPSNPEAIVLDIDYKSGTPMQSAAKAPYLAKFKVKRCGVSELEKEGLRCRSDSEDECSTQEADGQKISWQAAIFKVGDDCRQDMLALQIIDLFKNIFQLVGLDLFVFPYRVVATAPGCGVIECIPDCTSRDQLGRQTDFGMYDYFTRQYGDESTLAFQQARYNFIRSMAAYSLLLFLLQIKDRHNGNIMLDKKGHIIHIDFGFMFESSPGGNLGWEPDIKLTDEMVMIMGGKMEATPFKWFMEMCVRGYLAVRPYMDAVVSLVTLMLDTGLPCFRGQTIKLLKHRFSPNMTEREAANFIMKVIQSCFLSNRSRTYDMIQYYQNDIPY
UniProt Q9UBF8: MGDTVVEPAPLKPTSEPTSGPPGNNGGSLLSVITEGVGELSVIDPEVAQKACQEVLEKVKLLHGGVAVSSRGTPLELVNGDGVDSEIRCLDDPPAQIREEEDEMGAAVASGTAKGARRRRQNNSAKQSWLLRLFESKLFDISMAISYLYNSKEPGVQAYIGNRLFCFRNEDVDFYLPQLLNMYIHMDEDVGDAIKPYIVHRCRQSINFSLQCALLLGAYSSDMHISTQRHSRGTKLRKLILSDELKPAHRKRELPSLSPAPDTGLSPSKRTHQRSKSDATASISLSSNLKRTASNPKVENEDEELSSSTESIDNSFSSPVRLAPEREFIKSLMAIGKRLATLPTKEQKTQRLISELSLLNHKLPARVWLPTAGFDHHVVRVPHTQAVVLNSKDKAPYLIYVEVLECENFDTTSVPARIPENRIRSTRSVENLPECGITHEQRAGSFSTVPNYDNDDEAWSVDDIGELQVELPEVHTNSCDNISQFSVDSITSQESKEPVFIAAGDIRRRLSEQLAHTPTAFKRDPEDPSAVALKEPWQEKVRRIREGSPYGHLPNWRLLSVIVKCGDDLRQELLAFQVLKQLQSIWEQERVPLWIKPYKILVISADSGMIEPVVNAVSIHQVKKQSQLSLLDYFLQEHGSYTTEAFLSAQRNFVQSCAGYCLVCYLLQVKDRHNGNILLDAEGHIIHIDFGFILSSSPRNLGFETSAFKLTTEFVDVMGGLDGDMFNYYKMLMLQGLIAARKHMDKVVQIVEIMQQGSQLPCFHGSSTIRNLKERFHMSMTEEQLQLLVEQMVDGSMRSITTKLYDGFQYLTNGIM
UniProt P07949, whole entry, looked up: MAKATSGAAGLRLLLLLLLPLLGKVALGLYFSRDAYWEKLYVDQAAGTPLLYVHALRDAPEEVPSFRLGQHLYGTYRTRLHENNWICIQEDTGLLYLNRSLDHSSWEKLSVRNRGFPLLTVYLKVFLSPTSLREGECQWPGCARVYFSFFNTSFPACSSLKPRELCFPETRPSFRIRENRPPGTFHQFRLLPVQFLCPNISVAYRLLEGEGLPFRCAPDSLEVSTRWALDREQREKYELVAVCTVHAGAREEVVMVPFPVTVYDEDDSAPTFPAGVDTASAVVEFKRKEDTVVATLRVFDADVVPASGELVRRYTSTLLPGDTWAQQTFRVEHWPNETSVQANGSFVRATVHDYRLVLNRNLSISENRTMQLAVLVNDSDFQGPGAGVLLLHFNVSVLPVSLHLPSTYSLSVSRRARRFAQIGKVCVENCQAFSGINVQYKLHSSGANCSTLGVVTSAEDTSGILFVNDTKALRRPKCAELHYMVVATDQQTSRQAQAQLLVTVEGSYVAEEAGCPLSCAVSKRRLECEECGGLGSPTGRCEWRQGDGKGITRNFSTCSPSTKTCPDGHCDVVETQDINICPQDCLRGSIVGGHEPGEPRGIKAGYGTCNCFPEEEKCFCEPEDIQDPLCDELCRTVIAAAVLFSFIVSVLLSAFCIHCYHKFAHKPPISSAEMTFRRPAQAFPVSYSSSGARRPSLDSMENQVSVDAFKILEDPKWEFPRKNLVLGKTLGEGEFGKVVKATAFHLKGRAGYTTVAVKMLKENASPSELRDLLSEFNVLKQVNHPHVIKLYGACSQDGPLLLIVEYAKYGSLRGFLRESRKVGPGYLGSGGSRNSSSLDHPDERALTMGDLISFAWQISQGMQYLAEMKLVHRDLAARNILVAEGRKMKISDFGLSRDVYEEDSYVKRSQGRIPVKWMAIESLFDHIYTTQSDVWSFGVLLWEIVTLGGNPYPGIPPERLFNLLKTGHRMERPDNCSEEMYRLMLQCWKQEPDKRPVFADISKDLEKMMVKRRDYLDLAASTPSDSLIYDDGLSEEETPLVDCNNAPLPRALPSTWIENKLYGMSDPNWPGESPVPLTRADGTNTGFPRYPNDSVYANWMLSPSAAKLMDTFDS
UniProt Q9BRS2: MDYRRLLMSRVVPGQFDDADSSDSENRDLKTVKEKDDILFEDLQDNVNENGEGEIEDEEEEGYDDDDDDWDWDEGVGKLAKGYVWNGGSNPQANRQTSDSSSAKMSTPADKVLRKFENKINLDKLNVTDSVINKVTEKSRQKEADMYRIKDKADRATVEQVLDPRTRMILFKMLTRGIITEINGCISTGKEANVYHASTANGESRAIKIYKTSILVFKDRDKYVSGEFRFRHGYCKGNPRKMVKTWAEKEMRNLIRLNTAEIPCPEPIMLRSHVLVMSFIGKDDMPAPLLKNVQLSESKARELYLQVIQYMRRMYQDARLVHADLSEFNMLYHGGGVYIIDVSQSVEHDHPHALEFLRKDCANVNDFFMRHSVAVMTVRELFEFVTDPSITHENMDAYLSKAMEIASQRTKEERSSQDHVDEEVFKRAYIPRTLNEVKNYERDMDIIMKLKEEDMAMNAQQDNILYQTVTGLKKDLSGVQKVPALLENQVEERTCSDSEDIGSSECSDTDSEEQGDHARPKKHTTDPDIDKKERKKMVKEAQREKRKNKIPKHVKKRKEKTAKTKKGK

Tests used:
Assay in all cases: number of time points (of 5) at which kinase-Nluc abundance scored as decreased, DMSO-normalised (count); higher = more persistent destabilization
Details in all cases: K562; 2-18 h
[1] = molecular target: NTRK3 (UniProt Q16288)
[2] = molecular target: PAK4 (UniProt O96013)
[3] = molecular target: PBK (UniProt Q96KB5)
[4] = molecular target: PDGFRB (UniProt P09619)
[5] = molecular target: PDK1 (UniProt Q15118)
[6] = molecular target: PDPK1 (UniProt O15530)
[7] = molecular target: PIK4CA (UniProt P42356)
[8] = molecular target: PIK4CB (UniProt Q9UBF8)
[9] = molecular target: PLK1 (UniProt P53350)
[10] = molecular target: PRKAA1 (UniProt Q13131)
[11] = molecular target: PRKCA (UniProt P17252)
[12] = molecular target: PTK2 (UniProt Q05397)
[13] = molecular target: PTK2B (UniProt Q14289)
[14] = molecular target: RAF1 (UniProt P04049)
[15] = molecular target: RAF1_S257L (clone: RAF1_mut) (UniProt P04049)
[16] = molecular target: RET (UniProt P07949)
[17] = molecular target: RET_M918T (clone: RET_mut) (UniProt P07949)
[18] = molecular target: RIOK1 (UniProt Q9BRS2)
[19] = molecular target: RIPK1 (UniProt Q13546)
[20] = molecular target: RIPK2 (UniProt O43353)

Measured: number of time points

N#CC(C#N)=Cc1ccc([N+](=O)[O-])c(O)c1 (10 µM)
0: all assays above

CN(C)C(=O)c1ccc(Cn2c(C(=O)O)cc3c(Br)cc(Sc4ccc(Cl)c(Cl)c4)cc32)cc1 [Rheb inhibitor NR1] (10 µM)
0: all assays above

NCCc1cn(S(=O)(=O)c2c(Cl)nc3sccn23)c2ccccc12 (10 µM)
0: all assays above

CC(=O)OC(C)(C)/C=C/C(=O)[C@](C)(O)[C@H]1[C@H](O)C[C@@]2(C)[C@@H]3CC=C4[C@@H](C=C(O)C(=O)C4(C)C)[C@]3(C)C(=O)C[C@]12C [Cucurbitacin E] (2.5 µM)
1: [10] | [17]
3: [19] | [20]
5: [6]
4: [16]
2: [8] | [12] | [14] | [18]
0: all other assays above

O=C(N[C@@H](COc1ccc2[nH]c(=O)[nH]c2c1)c1ccccc1)c1cccn(Cc2ccc(F)c(F)c2)c1=O (2.5 µM)
not listed: [6]
0: all other assays above

Cc1n[nH]cc1-c1cc2nc([C@@H]3CC4CCN3CC4)[nH]c(=O)c2s1 [Simurosertib] (2.5 µM)
0: all assays above

C[C@H](Nc1ncnc2[nH]cnc12)c1nc2ccc(F)cc2c(=O)n1-c1ccccc1 [Acalisib] (10 µM)
0: all assays above

COC[C@H]1OC(=O)c2coc3c2[C@@]1(C)C1=C(C3=O)[C@@H]2CCC(=O)[C@@]2(C)C[C@H]1OC(C)=O [Wortmannin] (2.5 µM)
3: [6] | [15] | [19]
4: [12]
2: [8] | [17]
1: [14]
not listed: [9]
0: all other assays above

C[C@@H]1CC[C@H]2[C@@H](C)C(=O)O[C@@H]3O[C@@]4(C)CC[C@@H]1[C@]32OO4 [Artemisinin] (10 µM)
0: all assays above

O=C(/C=C/c1ccccc1)OC[C@H]1O[C@@H](O[C@@H]2OC=C[C@H]3[C@H](O)[C@@H]4O[C@]4(CO)[C@@H]23)[C@H](O)[C@@H](O)[C@@H]1O [Picroside I] (10 µM)
0: all assays above
